Laboratory results taken from patent US5731285A (A. Menatini Industrie Farmaceutiche, priority 1992, dated 1998).
Some peptides are written in HELM: one residue between dots, names in brackets for other building blocks, links after the first $.

Assay: general procedure: Boc solid-phase peptide synthesis; Boc-Leu-OCH2-PAM resin (Applied BioSystem, 0.8 meq/g); PyBop; symmetric anhydride (dicyclohexyl carbodiimide); HOBt
Conditions: cyclisation step, 210 nm

PEPTIDE1{M.D.W.F.[Dpr].L}$PEPTIDE1,PEPTIDE1,1:R1-6:R2|PEPTIDE1,PEPTIDE1,2:R3-5:R3$$$V2.0
final HPLC purity: >99%
